From patent US20140219992A1
Results are given in words; binding and its absence hold for the method and conditions named. Some results given as binding are weak or reduced against the parent protein; the word gives no strength.

By UniProt entry, the sequences of proteins in these tests, tags left out. Where a name states a change or a piece, a line headed by the entry shows the natural chain unless it says otherwise.
UniProt P03956: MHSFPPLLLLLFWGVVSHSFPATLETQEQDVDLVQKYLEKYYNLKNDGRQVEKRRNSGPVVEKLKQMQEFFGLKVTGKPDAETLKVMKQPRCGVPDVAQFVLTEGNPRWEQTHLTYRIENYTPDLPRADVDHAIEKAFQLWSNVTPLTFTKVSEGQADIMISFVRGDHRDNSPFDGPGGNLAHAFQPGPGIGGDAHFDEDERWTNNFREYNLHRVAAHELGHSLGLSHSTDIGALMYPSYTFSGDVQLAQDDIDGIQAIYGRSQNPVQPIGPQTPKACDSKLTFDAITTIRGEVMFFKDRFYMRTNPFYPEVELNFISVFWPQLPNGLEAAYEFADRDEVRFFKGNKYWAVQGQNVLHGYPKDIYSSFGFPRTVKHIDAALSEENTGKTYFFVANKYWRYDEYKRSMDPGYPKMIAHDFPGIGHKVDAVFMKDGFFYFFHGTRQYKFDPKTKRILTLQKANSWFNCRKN

Biological target: T1, a-2 macroglobulin of Zucker rat (rat) (UniProt P06238)
T1 sequence (looked up): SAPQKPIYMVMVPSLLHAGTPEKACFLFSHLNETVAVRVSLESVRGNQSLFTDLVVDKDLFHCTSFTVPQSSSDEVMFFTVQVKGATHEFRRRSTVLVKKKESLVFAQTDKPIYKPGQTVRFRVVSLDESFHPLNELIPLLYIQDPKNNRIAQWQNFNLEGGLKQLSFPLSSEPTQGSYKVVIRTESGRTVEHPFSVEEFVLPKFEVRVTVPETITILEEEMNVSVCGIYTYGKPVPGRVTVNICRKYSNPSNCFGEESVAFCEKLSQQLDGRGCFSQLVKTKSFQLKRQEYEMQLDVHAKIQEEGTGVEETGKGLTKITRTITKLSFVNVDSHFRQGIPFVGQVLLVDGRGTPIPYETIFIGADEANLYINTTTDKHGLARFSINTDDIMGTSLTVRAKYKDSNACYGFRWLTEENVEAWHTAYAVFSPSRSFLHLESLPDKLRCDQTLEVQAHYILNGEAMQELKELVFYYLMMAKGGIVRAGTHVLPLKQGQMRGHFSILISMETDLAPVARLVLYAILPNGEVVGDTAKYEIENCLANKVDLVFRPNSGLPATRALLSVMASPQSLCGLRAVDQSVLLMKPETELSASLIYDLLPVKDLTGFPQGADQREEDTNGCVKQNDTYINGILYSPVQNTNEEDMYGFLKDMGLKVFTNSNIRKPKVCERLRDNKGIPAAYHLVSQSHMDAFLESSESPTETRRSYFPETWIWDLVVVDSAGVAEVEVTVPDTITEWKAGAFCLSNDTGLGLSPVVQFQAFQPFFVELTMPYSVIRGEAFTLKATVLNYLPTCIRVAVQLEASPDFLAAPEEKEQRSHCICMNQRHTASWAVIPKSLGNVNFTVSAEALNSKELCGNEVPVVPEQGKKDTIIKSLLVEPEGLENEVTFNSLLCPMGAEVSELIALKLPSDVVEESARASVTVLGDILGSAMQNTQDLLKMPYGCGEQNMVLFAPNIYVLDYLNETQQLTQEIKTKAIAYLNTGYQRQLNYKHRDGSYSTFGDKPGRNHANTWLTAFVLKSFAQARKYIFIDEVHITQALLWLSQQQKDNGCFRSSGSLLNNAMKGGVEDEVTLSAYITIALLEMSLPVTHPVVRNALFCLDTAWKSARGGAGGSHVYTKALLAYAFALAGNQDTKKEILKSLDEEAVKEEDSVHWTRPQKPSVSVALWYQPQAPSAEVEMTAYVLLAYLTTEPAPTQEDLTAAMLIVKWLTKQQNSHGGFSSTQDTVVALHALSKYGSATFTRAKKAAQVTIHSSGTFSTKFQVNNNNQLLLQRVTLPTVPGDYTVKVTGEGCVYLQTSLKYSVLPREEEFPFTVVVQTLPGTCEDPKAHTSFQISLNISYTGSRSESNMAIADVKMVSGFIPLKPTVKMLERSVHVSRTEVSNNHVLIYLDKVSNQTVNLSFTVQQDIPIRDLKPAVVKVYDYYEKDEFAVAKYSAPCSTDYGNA
Assay: immunoprecipitation of Zucker rat skin perfusate with anti-rat a-2 macroglobulin antibody, Western blot with anti-human MMP-1 antibody

binding | Substance
binds | MMP-1 mutant GVSK (G159V/S208K), purified and trypsin-activated (from UniProt P03956 100-469) (enzyme)
binds | wild-type human matrix metalloprotease 1 (hMMP-1), purified and trypsin-activated (from UniProt P03956 100-469) (enzyme)
